Measured values as given in PubChem BioAssay AID504467 (National Center for Advancing Translational Sciences (NCATS), 2011).
Screen size: about 330,000 compounds; about 7,700 (2.3%) were called active. The inconclusive results got no clear call from the source; some entries with a clear call stand among them for comparison. Calls come from the whole dose curve; as a rule, active = well fitted inhibition curve with a large enough effect; inconclusive = small, poorly fitted or top-dose-only effect, or effect the other way; inactive = flat fitted curve, though single readings scatter. Potencies of inconclusive entries are doubtful fits and often do not repeat.

test: qHTS screen for small molecules that inhibit ELG1-dependent DNA repair in human embryonic kidney (HEK293T) cells expressing luciferase-tagged ELG1; settings: HEK293T ELG1-luciferase reporter, luminescence, 16 h, DNA damage induced by 5-fluorouridine; series mostly up to 46.1 µM; note: nearly all actives have a fitted effect of over 55% in size
Procedure, shortened: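 Quantitative HTS, concentration-response format. 2,000 cells/well co-treated with 5-fluorouridine and compound, 16 hr in 5% CO2 at 37 °C; ONE-Glo luminescence read after 30 min.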
Potency is the fitted concentration of half-maximal effect.

| SMILES | Potency |
| --- | --- |
| Cc1cccn2c(=O)c3cc(C(=O)N4CCN(C(=O)c5ccco5)CC4)n(C)c3nc12 | inconclusive: 20.6 µM [inhibitor, partial curve] |
| Cc1cccn2c(=O)c(/C=C(\C#N)C(N)=O)c(N3CCN(Cc4ccc5c(c4)OCO5)CC3)nc12 | inconclusive: 18.4 µM [inhibitor, partial curve] |
| Clc1ccc(-c2nc3ccncc3[nH]2)cc1 | inconclusive: 14.6 µM [activator, partial curve] |
| CCc1ccc(OCc2ccc(C(=O)OC)o2)cc1 | inconclusive: 2.59 µM [activator, full curve] |
| CC(C)CC(=O)OC1C(N2CCOCC2)c2c(ccc(/C=C/C(=O)N3CCOCC3)c2O)OC1(C)C (stereo not given) | active: 16.4 µM |
| C/C(=N\OCC(=O)Nc1ccccc1C(=O)O)c1cccs1 | inactive |
| O=C(CCNC(=O)c1ccccc1Cl)NCc1cccnc1 | inactive |
| COc1ccc(N2CCN(C(=O)CCCn3c(=O)c4cccn4c4cccnc43)CC2)cc1 | inconclusive: 13 µM [inhibitor, partial curve] |
| O=C(O)/C=C/c1nc(-c2ccccc2)n2ccccc12 | inconclusive: 18.4 µM [activator, partial curve, poor fit] |
| CCCNC(=S)N1CCN(c2nc(C)nc3sc4c(c23)CCCC4)CC1 | inconclusive: 25.9 µM [inhibitor, single point] |
| CCOc1ccc(S(=O)(=O)NCC(=O)OCc2nnc(-c3ccccc3)o2)cc1 | inactive |
| CC(=O)Nc1ccc([N+](=O)[O-])c(CS(=O)(=O)c2ccc(C)cc2)c1[N+](=O)[O-] | inactive |
| Cc1ccc(C(=O)OCC(=O)N2CCCc3ccccc32)cc1C | inactive |
| Cc1cc(C)cc(NC(=O)COC(=O)c2n[nH]c3ccccc23)c1 | inconclusive: 20.6 µM [activator, partial curve] |
| C/C(=N\Nc1nc2ccccc2[nH]1)c1ccc([N+](=O)[O-])cc1 | inactive |
| COc1ccc(N(CC(=O)Nc2ccccc2C(=O)NCC(C)C)S(C)(=O)=O)cc1 | inactive |
| O=C(NCCN1CCN(C(=O)c2cccc([N+](=O)[O-])c2)CC1)C(=O)NCc1ccc(Cl)cc1 | inconclusive: 25.9 µM [inhibitor, partial curve] |
| Cc1noc(C)c1C(=O)OCC(=O)/C=C1\N(C)c2ccccc2C1(C)C | inactive |
| COc1ccc2c(c1)C(=O)N(c1ccc(C)cc1)C(=O)C2 | inconclusive: 0.146 µM [activator, full curve, poor fit] |
| CC(OC(=O)CNS(=O)(=O)c1ccc(C#N)cc1)C(=O)Nc1ccc(Cl)cn1 (stereo not given) | inconclusive: 5.17 µM [activator, single point] |

A few values from the entries so far.
Value for CC(=O)Nc1ccc([N+](=O)[O-])c(CS(=O)(=O)c2ccc(C)cc2)c1[N+](=O)[O-] under Potency: inactive
Value for Clc1ccc(-c2nc3ccncc3[nH]2)cc1 under Potency: inconclusive: 14.6 µM [activator, partial curve]
